Experimental data as given in publication PMC4735494.
Results are given in words; binding and its absence hold for the method and conditions named. Binding seen in cells or lysates may run through a third protein. Binding calls can cover weak binding; strength is not graded here. Where a sequence is shown, tags or fusion partners need not be part of it.

Experiments:
[1] = target: GFP-tagged SsSSVP1^∆SP (SsSSVP1^∆SP-GFP) (Sclerotinia sclerotiorum); experiment: co-IP; co-expression in N. benthamiana leaves; RIPA lysis buffer; IP with anti-GFP monoclonal antibody and protein G plus-agarose, 8 h at 4°C; immunoblot with anti-FLAG
[2] = target: SsSSVP1^∆SP-nYFP (Sclerotinia sclerotiorum); experiment: split reporter; BiFC with nYFP and cYFP fusions transiently co-expressed in N. benthamiana leaves; confocal microscopy 3 days after agroinfiltration

Binder | binding [1] | binding [2]
3×FLAG-tagged QCR8 (QCR8-3×FLAG) (protein, UniProt Q9SG91 1-72) MGKQPVKLKAVVYALSPFQQKIMTGLWKDLPEKIHHKVSENWISATLLVTPVVGTYWYAQYFKEQEKLEHRF | binds | –
QCR8-cYFP (protein, UniProt Q9SG91 1-72) MGKQPVKLKAVVYALSPFQQKIMTGLWKDLPEKIHHKVSENWISATLLVTPVVGTYWYAQYFKEQEKLEHRF | – | binds
